From article PMC6030168
These are yes or no findings as the source states them, for the method shown. In cells and extracts the contact can be indirect. Some entries that bind do so weakly or less than the wild type.

The chains behind the UniProt entries cited, without tags or fusion partners. Where a name states a change or a piece, a line headed by the entry shows the natural chain unless it says otherwise. A line that says so, or that is headed by a name, gives the form on record, which may keep a tag or linker.
UniProt P35222: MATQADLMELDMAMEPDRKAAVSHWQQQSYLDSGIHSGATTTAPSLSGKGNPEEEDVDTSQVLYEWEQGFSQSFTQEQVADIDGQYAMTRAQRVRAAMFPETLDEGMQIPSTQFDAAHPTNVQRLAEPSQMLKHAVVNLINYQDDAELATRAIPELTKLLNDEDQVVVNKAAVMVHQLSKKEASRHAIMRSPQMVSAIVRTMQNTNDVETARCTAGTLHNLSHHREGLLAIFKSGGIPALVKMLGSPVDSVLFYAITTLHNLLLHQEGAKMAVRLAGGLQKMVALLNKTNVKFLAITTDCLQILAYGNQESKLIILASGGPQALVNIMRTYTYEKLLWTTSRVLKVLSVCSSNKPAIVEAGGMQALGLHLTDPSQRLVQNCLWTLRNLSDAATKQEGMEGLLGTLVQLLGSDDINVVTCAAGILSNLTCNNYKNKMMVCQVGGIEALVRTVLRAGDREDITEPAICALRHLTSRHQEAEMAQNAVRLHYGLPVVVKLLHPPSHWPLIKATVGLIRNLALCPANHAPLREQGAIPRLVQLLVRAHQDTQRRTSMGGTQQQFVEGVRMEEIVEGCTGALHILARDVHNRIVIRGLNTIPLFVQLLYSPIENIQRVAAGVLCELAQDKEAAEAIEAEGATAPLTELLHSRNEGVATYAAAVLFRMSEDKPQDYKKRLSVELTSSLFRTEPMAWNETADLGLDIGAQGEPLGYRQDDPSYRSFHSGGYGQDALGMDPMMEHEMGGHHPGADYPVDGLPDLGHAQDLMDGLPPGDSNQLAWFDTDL
LIM domain kinase (LIMK)2 (P53671-3, form named): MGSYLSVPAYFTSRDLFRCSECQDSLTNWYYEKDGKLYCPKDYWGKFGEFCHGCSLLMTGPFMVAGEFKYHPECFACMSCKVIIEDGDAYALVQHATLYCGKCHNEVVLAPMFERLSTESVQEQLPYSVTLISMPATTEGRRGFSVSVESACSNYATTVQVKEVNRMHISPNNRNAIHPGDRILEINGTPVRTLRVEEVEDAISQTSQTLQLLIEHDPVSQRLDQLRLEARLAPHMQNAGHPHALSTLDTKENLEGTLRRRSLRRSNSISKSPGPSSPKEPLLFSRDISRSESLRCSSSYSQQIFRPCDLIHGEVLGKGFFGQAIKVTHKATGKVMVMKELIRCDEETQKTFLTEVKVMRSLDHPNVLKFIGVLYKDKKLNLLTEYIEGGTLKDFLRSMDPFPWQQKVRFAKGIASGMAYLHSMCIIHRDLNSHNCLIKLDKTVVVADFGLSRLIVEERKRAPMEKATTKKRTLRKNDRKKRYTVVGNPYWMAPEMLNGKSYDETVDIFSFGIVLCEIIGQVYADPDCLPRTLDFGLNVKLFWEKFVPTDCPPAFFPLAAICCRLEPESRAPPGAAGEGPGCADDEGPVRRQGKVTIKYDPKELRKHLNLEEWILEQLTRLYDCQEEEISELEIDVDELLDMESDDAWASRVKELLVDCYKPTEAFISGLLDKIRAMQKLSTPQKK

Target: β-catenin (human (endogenous in SW480)) (UniProt P35222)
Test: co-IP; co-immunoprecipitation in SW480 cells; details in the supplementary materials and methods

LIM domain kinase (LIMK)2 (from UniProt P53671-3 1-686)
binding: binds
